# Where “and” joins values, the source holds several entries; their conditions need not be identical. Identical values can stand only once. The list shows a part of the results. For some assays here: The exact form of the protein is not confirmed.
# Chains of the proteins cited; added tags and fusions are not shown.
# UniProt P60228, whole entry: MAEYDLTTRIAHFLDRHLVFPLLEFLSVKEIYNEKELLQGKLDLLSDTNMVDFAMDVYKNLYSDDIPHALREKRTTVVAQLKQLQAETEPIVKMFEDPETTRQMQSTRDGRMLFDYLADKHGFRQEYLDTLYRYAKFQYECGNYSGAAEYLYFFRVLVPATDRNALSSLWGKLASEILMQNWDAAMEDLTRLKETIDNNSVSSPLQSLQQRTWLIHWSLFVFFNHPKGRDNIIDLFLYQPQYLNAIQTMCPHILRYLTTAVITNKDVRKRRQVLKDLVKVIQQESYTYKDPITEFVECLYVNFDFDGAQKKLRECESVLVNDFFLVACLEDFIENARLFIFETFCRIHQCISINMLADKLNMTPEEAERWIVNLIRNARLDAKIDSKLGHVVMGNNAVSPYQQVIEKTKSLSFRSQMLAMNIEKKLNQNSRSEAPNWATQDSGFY
# Legend:
# Assay in all cases: protein microarray (ProtoArray v5.0), streptavidin-Alexa Fluor 647
# Details in all cases: 3'-biotin; 20 mM Tris (pH 7.5), 5 mM MgCl2, 100 mM KCl, 0.1% Tween-20, A/T-rich and random oligonucleotide blockers; temperature not stated; high values mean tight binding
# ECM1 (human) = tested on: ECM1 (human)
# EDEM3 (human) = tested on: EDEM3 (human)
# EDIL3 (human) = tested on: EDIL3 (human)
# EEF1G (human) = tested on: EEF1G (human)
# EFCAB2 (human) = tested on: EFCAB2 (human)
# EFCBP1 (human) = tested on: EFCBP1 (human)
# EFS (human) = tested on: EFS (human)
# EFTUD2 (human) = tested on: EFTUD2 (human)
# EGFL8 (human) = tested on: EGFL8 (human)
# EIF2B1 (human) = tested on: EIF2B1 (human)
# EIF2B2 (human) = tested on: EIF2B2 (human)
# EIF2B3 (human) = tested on: EIF2B3 (human)
# EIF2C2 (human) = tested on: EIF2C2 (human)
# EIF3F (human) = tested on: EIF3F (human)
# EIF3M (human) = tested on: EIF3M (human)
# EIF3S6 = EIF3S6 (UniProt P60228)
# EIF4A2 (human) = tested on: EIF4A2 (human)
# EIF4EBP3 = target: T1, EIF4EBP3 (UniProt O60516)
# T1 sequence: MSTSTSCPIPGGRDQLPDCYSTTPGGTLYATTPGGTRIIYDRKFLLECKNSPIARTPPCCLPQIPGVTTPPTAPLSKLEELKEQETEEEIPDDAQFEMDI
# EIF5A2 (human) = tested on: EIF5A2 (human)
# ELA2A (human) = tested on: ELA2A (human)
sequence,measurement,setting,value
GGGAGGCTGAGGCAGG [G4-1 biotinylated (PQS2)],binding signal,ECM1 (human),-0.316 z-score
same,binding signal,EDEM3 (human),-0.292 z-score
same,binding signal,EDIL3 (human),-0.303 z-score
same,binding signal,EEF1G (human),-0.301 z-score
same,binding signal,EFCAB2 (human),-0.284 z-score
same,binding signal,EFCBP1 (human),-0.296 z-score
same,binding signal,EFS (human),-0.353 z-score
same,binding signal,EFTUD2 (human),-0.352 z-score
same,binding signal,EGFL8 (human),-0.309 z-score
same,binding signal,EIF2B1 (human),-0.333 z-score
same,binding signal,EIF2B2 (human),-0.363 z-score
same,binding signal,EIF2B3 (human),-0.307 z-score
same,binding signal,EIF2C2 (human),-0.283 z-score
same,binding signal,EIF3F (human),-0.312 z-score
same,binding signal,EIF3M (human),-0.308 z-score
same,binding signal,EIF3S6,-0.359 z-score
same,binding signal,EIF4A2 (human),-0.238 z-score and -0.309 z-score
same,binding signal,EIF4EBP3,-0.319 z-score
same,binding signal,EIF5A2 (human),-0.334 z-score
same,binding signal,ELA2A (human),-0.257 z-score

# Reference: PMC5996148
